PubChem BioAssay AID1224831 | NIAID, 2016
Screen: 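Confirming genome-wide hits on LPS-triggered TNF-alpha induction with independent siRNA sequences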 (follow-up of hits). Cell system: human THP-1 B5 monocytic leukaemia cells carrying a TNF promoter luciferase reporter, made macrophage-like with PMA. Knock-down reagent: single siRNA against human genes, 50 nM. Timing: about 68 h of knock-down, then 4 h LPS. Conditions: LPS (Salmonella minnesota, TLR-grade) at 10 ng/ml for 4 h; PMA 5 ng/ml present during knock-down. Read-out: 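Firefly to renilla luciferase ratio of a TNF promoter reporter after 4 h LPS, scaled to plate median, turned into robust z-score, averaged over replicates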. Scale: TNF reporter z-score: higher = stronger LPS-induced TNF reporter signal; z-score, median over gene's siRNAs: higher = stronger TNF reporter signal across the gene's siRNAs. Active means: 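Two-sided call: reduced or raised TNF reporter signal counts as active once mean z reaches about -1 or below, or about 1.5 or above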. Calls: active = changed TNF reporter (either direction); inactive = little change.
In all, the deposit lists about 3,500 reagents; this is a part drawn at random. Of all reagents, 731 (21%) got an active call. 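Active means either lowered or raised reporter signal; the gene-median score did not drive the per-siRNA calls.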

no.	gene symbol	PubChem SID	TNF reporter z-score, replicate mean	z-score, median over gene's siRNAs	Call
1	DESI1	SID315485367	-1.12	1.06	active
2	DESI1	SID315485368	1.56	1.06	active
3	DESI1	SID315485369	1.32	1.06	inactive
4	DESI1	SID315485370	0.8	1.06	inactive
5	DESI1	SID315485371	0.21	1.06	inactive
6	DESI1	SID315485372	2.22	1.06	active
7	ASB14	SID315487800	-0.98	-0.545	inactive
8	ASB14	SID315487801	-0.08	-0.545	inactive
9	ASB14	SID315487802	-1.23	-0.545	active
10	ASB14	SID315487803	0.17	-0.545	inactive
11	ASB14	SID315487804	-1.28	-0.545	active
12	ASB14	SID315487805	-0.11	-0.545	inactive

Entries listed so far with an active call, once more:
gene symbol	PubChem SID	TNF reporter z-score, replicate mean	z-score, median over gene's siRNAs	Call
DESI1	SID315485367	-1.12	1.06	active
DESI1	SID315485368	1.56	1.06	active
DESI1	SID315485372	2.22	1.06	active
ASB14	SID315487802	-1.23	-0.545	active
ASB14	SID315487804	-1.28	-0.545	active

Next results:
no.	gene symbol	PubChem SID	TNF reporter z-score, replicate mean	z-score, median over gene's siRNAs	Call
13	TGOLN2	SID315483486	-0.11	0.135	inactive
14	TGOLN2	SID315483487	3.26	0.135	active
15	TGOLN2	SID315483488	-0.93	0.135	inactive
16	TGOLN2	SID315483489	0.27	0.135	inactive
17	TGOLN2	SID315483490	2.49	0.135	active
18	TGOLN2	SID315483491	0	0.135	inactive
19	LRRC4	SID315486243	0.53	-0.46	inactive
20	LRRC4	SID315486244	-1.6	-0.46	active
21	LRRC4	SID315486245	-0.78	-0.46	inactive
22	LRRC4	SID315486246	0.91	-0.46	inactive
23	LRRC4	SID315486247	-0.14	-0.46	inactive
24	LRRC4	SID315486248	-1.09	-0.46	active
25	ARL5B	SID315488214	-1.07	-0.445	active
26	ARL5B	SID315488215	-0.84	-0.445	inactive
27	ARL5B	SID315488216	1.46	-0.445	inactive
28	ARL5B	SID315488217	-1.13	-0.445	active
29	ARL5B	SID315488218	0.23	-0.445	inactive
30	ARL5B	SID315488219	-0.05	-0.445	inactive
31	AVP	SID315482106	-0.57	-0.43	inactive
32	AVP	SID315482107	-0.29	-0.43	inactive
33	AVP	SID315482108	-0.67	-0.43	inactive
34	AVP	SID315482109	0.48	-0.43	inactive
35	AVP	SID315482110	-1.2	-0.43	active
36	AVP	SID315482111	2.07	-0.43	active
